One sequence from article PMC5996148 can be followed below.

The list shows a part of the results. For some of these results: The exact form of the protein is not confirmed.

Test systems include DNAJC5 (human); DNAJC5B (human); DNAJC5G (human); DNAJC7 (human); DNAL1 (human); DOK3 (human); DOLPP1 (human); DPCR1 (human); DPM2 (human).
Common to all, as to test: protein microarray (ProtoArray v5.0), streptavidin-Alexa Fluor 647
Conditions in all cases: 3'-biotin; 20 mM Tris (pH 7.5), 5 mM MgCl2, 100 mM KCl, 0.1% Tween-20, A/T-rich and random oligonucleotide blockers; temperature not stated; high values mean tight binding

A further experiment concerns the target T1, DNAL4 (UniProt O96015).
T1 sequence: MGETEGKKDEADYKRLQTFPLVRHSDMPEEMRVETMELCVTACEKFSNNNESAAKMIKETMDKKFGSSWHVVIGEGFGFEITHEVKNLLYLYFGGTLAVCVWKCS

For the sequence “GGGAGGCTGAGGCAGG [G4-1 biotinylated (PQS2)]”, the binding signal is -0.288 z-score in the experiment with DNAJC5 (human); -0.305 z-score in the experiment with DNAJC5B (human); -0.343 z-score in the experiment on DNAJC5G (human); -0.292 z-score in the experiment on DNAJC7 (human); -0.333 z-score in the experiment with DNAL1 (human); -0.329 z-score with DNAL4. For the same sequence, the binding signal in the experiment on DOK3 (human) was -0.257 z-score; in the experiment on DOLPP1 (human), -0.307 z-score; with DPCR1 (human), -0.327 z-score; in the experiment with DPM2 (human), -0.292 z-score.
